Test [1] addresses His6-tagged PTBP1 (human). The test can be described thus: affinity purification with mass spectrometry; 48 ug His6-PTBP incubated in 200 ul splicing reaction (2.2 mM MgCl2, 0.4 mM ATP, 20 mM creatine phosphate, HeLa nuclear extract) at 30°C for 90 min; captured on HisPur Ni-NTA magnetic resin overnight at 4°C, washed (150 mM NaCl, 30 mM imidazole), eluted with 300 mM imidazole; LC-MS/MS; proteins of the Buffer DG and HeLa only controls and common contaminants removed; only the target purified.

Sequences of proteins named here, by UniProt entry; tags and fusion partners are left off.
UniProt Q9UKA9: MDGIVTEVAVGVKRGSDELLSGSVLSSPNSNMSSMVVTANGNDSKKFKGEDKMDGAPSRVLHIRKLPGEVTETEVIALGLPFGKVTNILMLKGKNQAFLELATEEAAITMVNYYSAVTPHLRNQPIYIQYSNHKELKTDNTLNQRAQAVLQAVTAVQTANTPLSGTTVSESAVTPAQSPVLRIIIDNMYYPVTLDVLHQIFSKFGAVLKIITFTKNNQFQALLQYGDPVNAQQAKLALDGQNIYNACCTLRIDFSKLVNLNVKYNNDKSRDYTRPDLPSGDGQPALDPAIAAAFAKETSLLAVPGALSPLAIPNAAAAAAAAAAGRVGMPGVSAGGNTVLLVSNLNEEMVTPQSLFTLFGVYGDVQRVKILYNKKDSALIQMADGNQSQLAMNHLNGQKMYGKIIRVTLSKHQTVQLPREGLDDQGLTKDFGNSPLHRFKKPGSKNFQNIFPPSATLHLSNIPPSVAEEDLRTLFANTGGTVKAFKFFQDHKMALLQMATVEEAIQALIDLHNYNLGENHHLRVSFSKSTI

In test [2] the target is His6-tagged PTBP2 (human) (UniProt Q9UKA9). Described as above.

Results are given in words; binding and its absence hold for the method and conditions named. Binding seen in cells or lysates may run through a third protein. A yes stands for co-enrichment or nearness to the bait. Other partners may have been found.

B1: SARNP (protein, UniProt P82979 1-210)
chain: MATETVELHKLKLAELKQECLARGLETKGIKQDLIHRLQAYLEEHAEEEANEEDVLGDETEEEETKPIELPVKEEEPPEKTVDVAAEKKVVKITSEIPQTERMQKRAERFNVPVSLESKKAARAARFGISSVPTKGLSSDNKPMVNLDKLKERAQRFGLNVSSISRKSEDDEKLKKRKERFGIVTSSAGTGTTEDTEAKKRKRAERFGIA
Turning to B1, the binding entry in test [1] and in test [2] was “binds” each time.

B2: AIP (protein, UniProt O00170 1-330)
chain: MADIIARLREDGIQKRVIQEGRGELPDFQDGTKATFHYRTLHSDDEGTVLDDSRARGKPMELIIGKKFKLPVWETIVCTMREGEIAQFLCDIKHVVLYPLVAKSLRNIAVGKDPLEGQRHCCGVAQMREHSSLGHADLDALQQNPQPLIFHMEMLKVESPGTYQQDPWAMTDEEKAKAVPLIHQEGNRLYREGHVKEAAAKYYDAIACLKNLQMKEQPGSPEWIQLDQQITPLLLNYCQCKLVVEEYYEVLDHCSSILNKYDDNVKAYFKRGKAHAAVWNAQEAQADFAKVLELDPALAPVVSRELRALEARIRQKDEEDKARFRGIFSH
As to B2, the binding result in test [1] and in test [2] was “binds” throughout.

B3: ATN1 (protein, UniProt P54259 1-1190)
chain: MKTRQNKDSMSMRSGRKKEAPGPREELRSRGRASPGGVSTSSSDGKAEKSRQTAKKARVEEASTPKVNKQGRSEEISESESEETNAPKKTKTEQELPRPQSPSDLDSLDGRSLNDDGSSDPRDIDQDNRSTSPSIYSPGSVENDSDSSSGLSQGPARPYHPPPLFPPSPQPPDSTPRQPEASFEPHPSVTPTGYHAPMEPPTSRMFQAPPGAPPPHPQLYPGGTGGVLSGPPMGPKGGGAASSVGGPNGGKQHPPPTTPISVSSSGASGAPPTKPPTTPVGGGNLPSAPPPANFPHVTPNLPPPPALRPLNNASASPPGLGAQPLPGHLPSPHAMGQGMGGLPPGPEKGPTLAPSPHSLPPASSSAPAPPMRFPYSSSSSSSAAASSSSSSSSSSASPFPASQALPSYPHSFPPPTSLSVSNQPPKYTQPSLPSQAVWSQGPPPPPPYGRLLANSNAHPGPFPPSTGAQSTAHPPVSTHHHHHQQQQQQQQQQQQQQQQQQQHHGNSGPPPPGAFPHPLEGGSSHHAHPYAMSPSLGSLRPYPPGPAHLPPPHSQVSYSQAGPNGPPVSSSSNSSSSTSQGSYPCSHPSPSQGPQGAPYPFPPVPTVTTSSATLSTVIATVASSPAGYKTASPPGPPPYGKRAPSPGAYKTATPPGYKPGSPPSFRTGTPPGYRGTSPPAGPGTFKPGSPTVGPGPLPPAGPSGLPSLPPPPAAPASGPPLSATQIKQEPAEEYETPESPVPPARSPSPPPKVVDVPSHASQSARFNKHLDRGFNSCARSDLYFVPLEGSKLAKKRADLVEKVRREAEQRAREEKEREREREREKEREREKERELERSVKLAQEGRAPVECPSLGPVPHRPPFEPGSAVATVPPYLGPDTPALRTLSEYARPHVMSPGNRNHPFYVPLGAVDPGLLGYNVPALYSSDPAAREREREARERDLRDRLKPGFEVKPSELEPLHGVPGPGLDPFPRHGGLALQPGPPGLHPFPFHPSLGPLERERLALAAGPALRPDMSYAERLAAERQHAERVAALGNDPLARLQMLNVTPHHHQHSHIHSHLHLHQQDAIHAASASVHPLIDPLASGSHLTRIPYPAGTLPNPLLPHPLHENEVLRHQLFAAPYRDLPASLSAPMSAAHQLQAMHAQSAELQRLALEQQQWLHAHHPLHSVPLPAQEDYYSHLKKESDKPL
With B3, the binding result in test [1] and in test [2] was “binds” in each case.

Source of the values: article PMC8812845.
